Reference: PubChem BioAssay AID2417 (National Center for Advancing Translational Sciences (NCATS), 2010)
Out of some 140,000 compounds screened, about 4,300 (3.1%) were called active. The shares of active, inactive and inconclusive entries below differ from those in the screen.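 Rule for the calls: active = readout at or below -70, meaning at least 70% loss of cells showing the perinucleolar compartment, a nuclear body marking cancer cells; inconclusive = readout between -30 and a set limit; inactive = the rest.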

Experiment: High Content Assay for Compounds that inhibit the Assembly of the Perinucleolar Compartment;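 note: plate controls were DMSO wells for no effect and camptothecin positive control wells for full effect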
Conditions: PC3M PTB-GFP, PNC prevalence imaging, 16 h; at 10 µM; hits give low values
Outline: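 Read-out is percentage of cells bearing a perinucleolar compartment, from automated 20x imaging of fixed, Hoechst-stained PC3M PTB-GFP cells. Cells were seeded 4 h, then exposed 16 h to compound (23 nl of library stock) in duplicate plates.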

Compound | activity change (PNC), negative = inhibition
CCOC(=O)Cc1csc(NC(=O)c2ccc(Br)o2)n1 | inconclusive: -61.6%
O=C(CSc1ncnc2c1nnn2Cc1ccccc1F)N1CCN(c2ccccc2)CC1 | inconclusive: -35.8%
O=C(CCC1CCCCC1)Nc1ccccc1-c1ccccc1 | inconclusive: -42.5%
COc1cccc(C2[C@H](C)C3(CCN2C)OCCO3)c1 (stereo partly specified) | inconclusive: -57.8%
CCOC(=O)c1cc2c(C)n(-c3ccc(N(C)C)cc3)c(C)c2cc(C(=O)OCC)c1=O | inconclusive: -45.8%
O=C(Nc1ccccc1SCC1CSc2nc3ccccc3c(=O)n21)c1ccccc1Cl (stereo unspecified) | inconclusive: -74.4%
Cc1ccc(N=Cc2c(O)n(-c3nccs3)c(=O)c3ccccc23)c(C)c1 | inconclusive: -64.9%
CC(C)(C)C1CCc2onc(C(=O)NC3CCCC3)c2C1 (stereo unspecified) | inactive: -14.8%
CCc1nnc(NC(=O)CSc2nc3cc4c(cc3cc2CC)OCCO4)s1 | inactive: 3.1%
Cc1cc(OCC(=O)N2CCCC2)cc(C)c1Cl | inactive: -21.1%
O=C1CC(N2CCN(C/C=C/c3ccccc3)CC2)C(=O)N1Cc1ccc(N2CCCC2=O)cc1 (stereo unspecified) | inconclusive: -33.7%
CCCCn1c(/N=C/c2cc(OC)ccc2O)nc2ccccc21 | inconclusive: -64.2%
O=C(NCc1cccs1)C1CCCN(c2nc3ccccc3o2)C1 (stereo unspecified) | inactive: 5.8%
C=CCn1c(N)cc(=O)nc1SCC(=O)Nc1cccc2ccccc12 | inactive: 69%
CCNC(=S)Nc1ccc(OCC)cc1 | active: -86%
CN1CCN(Cc2nc3ccccc3c(=O)n2Cc2nc(-c3ccc4ccccc4c3)cs2)CC1 | inconclusive: -34.6%
CCCCCOC(=O)CSc1nnc(-c2ccccc2)c(=O)[nH]1 | inactive: 3.37%
COCCNS(=O)(=O)c1ccc(F)c(OC)c1 | inconclusive: -58%
COc1cc(NC(=O)c2ccc3c(c2)OCO3)ccc1NC(=O)c1ccco1 | inconclusive: -49.1%
Cc1ccc(NC(=O)c2ccc3c(c2)nnn3C)cc1 | inconclusive: -49.8%
Cc1ccc2oc(C(Cl)(Cl)Cl)cc(=O)c2c1 | inconclusive: -53.9%
O=c1c2ccccc2c(-c2ccccc2)nn1-c1cc(Cl)ccc1[N+](=O)[O-] | inconclusive: -40.9%
COc1ccc(CCNC(=O)CCC(=O)Nc2nnc(C(C)C)s2)cc1OC | inconclusive: -62.8%

Compound | activity change (PNC), negative = inhibition
O=C1C(Cl)=C(N2CCCCC2)C(=O)C(Cl)=C1c1cnc(N2CCCCC2)s1 | inconclusive: -37.7%
C[C@H](NC(=O)NCc1cccs1)C(=O)O | inconclusive: -77%
COc1ccc(C(=O)NC2CCCCCC2)cc1S(=O)(=O)N1CCCc2ccccc21 | inactive: 13.2%
COc1ccc(C2CC(=O)N3CN(Cc4ccco4)CSC3=C2C#N)cc1 (stereo unspecified) | inactive: 13.3%
O=C1c2ccccc2CCCC12N=NCC2c1cccc2ccccc12 (stereo unspecified) | inactive: -10.5%
COC(=O)N/N=C/c1cn(Cc2ccccc2Cl)c2ccccc12 | inconclusive: -58.2%
CC/C(=N/Nc1ccc(Cl)cc1)c1cnnc(SC)n1 | inactive: 100%
Cc1cc([N+](=O)[O-])nn1CCC(=O)NC1CCCCCC1 | inactive: 30.6%
O=C(/C=C/c1ccc(Cl)cc1)N1CCN(c2ccccc2[N+](=O)[O-])CC1 | active: -91.4%
O=C(CSc1ccc(-c2nc3ccccc3[nH]2)cn1)N1CCN(C(=O)c2ccco2)CC1 | inconclusive: -32.6%
CCOC(=O)CSC1=C(C#N)C(c2ccccc2C)C2=C(CCCC2=O)N1 (stereo unspecified) | inconclusive: -30%
O=C(NCc1cccs1)c1ccncc1 | inactive: 14.3%
O=C(Cn1cc(C(=O)c2cccs2)c2ccccc21)NCc1cccs1 | inconclusive: -49.1%
O=C1c2ccccc2C(=O)N1CCCc1nc(-c2ccccn2)no1 | active: -107%
CCOc1cc(NC(=S)NCC(C)C)c(OCC)cc1NC(=O)c1cccs1 | inconclusive: -47%
O=C(Nc1ccn(Cc2ccccc2F)n1)c1ccc(COc2ccccc2Cl)cc1 | inconclusive: -53.3%
Cc1ccc(S(=O)(=O)/N=C(\CCl)N2CCOCC2)cc1 | inactive: 24.2%
O=C(Cn1c(-c2cscn2)nc2ccccc21)Nc1ccc(Cl)cc1 | inconclusive: -52.6%
O=C(Nc1ccc(Br)cn1)c1cccc(-c2cc3ccccc3oc2=O)c1 | inconclusive: -45.1%
COc1ccc(NC(C)=O)cc1NC(=O)CSc1nnc(-c2ccc(F)cc2)n1N | inactive: -8.35%
Cc1nn(C2CCS(=O)(=O)C2)c(Cl)c1/C=C/C(=O)OCC(=O)c1cc(C)n(-c2ccc(F)cc2)c1C (stereo unspecified) | inactive: 87.3%
CN1C(=O)N(c2cccc3ccccc23)C(n2cncn2)C1(C)C (stereo unspecified) | inconclusive: -44.2%
Cc1cc(OCC(=O)O)c2ccccc2n1 | inconclusive: -38.7%

Compound | activity change (PNC), negative = inhibition
COc1ccc(-c2c(C(C)=O)c(C)nc3sc4c(=O)n(-c5ccc(C)cc5)nnc4c23)cc1 | active: -106%
COC(=O)c1ccccc1S(=O)(=O)N(Cc1cc2cc3c(cc2[nH]c1=O)OCO3)C1CCCCC1 | inconclusive: -54.7%
COc1cccc(NC(=O)COC(=O)c2c(-c3ccccc3)noc2C)c1 | inconclusive: -63.3%
CCc1ccc(C2C(C#N)=C(N)SC(N)=C2C#N)s1 | inactive: 12.8%
COc1ccc(-n2c(Cn3nnc4ccccc43)nnc2SCC(=O)O)cc1 | inactive: 50.2%
CCOC(=O)N1CCC(NC(=O)c2cnn3ccccc23)CC1 | inconclusive: -39.1%
O=C(O)c1ccc(CSc2nc(-c3ccc(Cl)cc3)cc(C(F)(F)F)n2)cc1 | inactive: 18.4%
c1ccc(-c2cnc(-c3cccnc3)o2)cc1 | active: -83.7%
COc1cc(-c2noc(C3CCCN(S(=O)(=O)c4cccc(Cl)c4)C3)n2)cc(OC)c1OC (stereo unspecified) | inconclusive: -45.2%
COCCNC(=O)/C(C#N)=C/c1ccc(-c2ccc(S(=O)(=O)N3CCOCC3)cc2)o1 | inconclusive: -53.6%
O=C(NN1C(=O)c2ccccc2C1=O)C1CCCCC1 | inconclusive: -39.5%
CCOc1ccc(N(CC(=O)Nc2ccc(OC)cc2)S(=O)(=O)c2c(C)noc2C)cc1 | inactive: -15.5%
COc1ccc(Nc2nc(-c3cccs3)nc3ccccc23)cc1 | inconclusive: -30.5%
CCn1nnc(C(=O)O)c1C(=O)O | inconclusive: -55.3%
CCCCNS(=O)(=O)c1ccc(S(=O)(=O)NCc2ccncc2)cc1 | inconclusive: -67.7%
O=C(c1cccnc1)N1CCN(C(=O)c2ccco2)CC1 | active: -100%
COc1cccc(N=c2oc3ccc(OC)cc3cc2-c2nc3ccccc3[nH]2)c1 | inconclusive: -48.4%
Cc1ccc(-c2nnn(CC(=O)N(c3ccccc3)C(C(=O)NC3CCCC3)c3ccco3)n2)o1 (stereo unspecified) | inconclusive: -43.6%
COC(=O)[C@H](CCSC)NC(=O)Nc1ccc(C)cc1C | inconclusive: -69%
Cc1cc(N2CCC(C)CC2)nc(-n2nc(C)cc2C)n1 | active: -95.8%
Cc1ccc(NC(=S)NCc2cccnc2)cc1 | inactive: 12.5%
COc1ccc(-n2c(Cc3cccn3C)nnc2SCC(=O)Nc2ccccc2OC)cc1 | inconclusive: -55.8%
CCn1nnc(-c2ccccc2NS(=O)(=O)c2ccc(S(=O)(=O)N(C)C3CCCCC3)cc2)n1 | inactive: 19.1%

Part of the list above, tab-delimited:
Compound	activity change (PNC), negative = inhibition
COc1cccc(N=c2oc3ccc(OC)cc3cc2-c2nc3ccccc3[nH]2)c1	inconclusive: -48.4%
Cc1ccc(-c2nnn(CC(=O)N(c3ccccc3)C(C(=O)NC3CCCC3)c3ccco3)n2)o1 (stereo unspecified)	inconclusive: -43.6%
COC(=O)[C@H](CCSC)NC(=O)Nc1ccc(C)cc1C	inconclusive: -69%

More entries follow.

Compound | activity change (PNC), negative = inhibition
Cc1ccc(S(=O)(=O)N2CCCC(c3nc(-c4ccc(C)o4)no3)C2)cc1 (stereo unspecified) | inactive: -22.1%
Cc1cc(C)c(C#N)c(SCC2COc3ccccc3O2)n1 (stereo unspecified) | inactive: -23.8%
CSCCC1C(C#N)=C(N)Oc2n[nH]c(-c3cccs3)c21 (stereo unspecified) | inconclusive: -42.2%
CNC(=O)COC(=O)[C@@H](Nc1ccc(S(=O)(=O)N2CCOCC2)cc1[N+](=O)[O-])C(C)C | active: -113%
Cc1cc(C)c(C(N)=O)c(Nc2cccc3ccccc23)n1 | inactive: 15.2%
CS(=O)(=O)Nc1ccccc1C(=O)O | inactive: -23.2%
COC(=O)CNC(=O)c1ccc(=O)oc1 | inconclusive: -31.9%
O=C(NCC1COc2ccccc2O1)Nc1ccccc1F (stereo unspecified) | inconclusive: -33.9%
COc1ccc(C2C(C#N)=C(N)Oc3n[nH]c(-c4ccccn4)c32)c(OC)c1OC (stereo unspecified) | inconclusive: -57.8%
c1ccc(CSc2n[nH]c(-c3ccco3)n2)cc1 | inconclusive: -51.5%
COc1ccccc1NC(=O)C(C)Sc1nnnn1C (stereo unspecified) | inactive: -19.5%
Cc1cc2cc(C(c3nnnn3C(C)(C)C)N(Cc3ccco3)CC3CCCO3)c(=O)[nH]c2cc1C (stereo unspecified) | inactive: -7.89%
C=CCc1cc(Cl)ccc1OCCCNC(C)C | inconclusive: -67.8%
CCOC(=O)C1CCCN(C(=O)c2ccc3c(c2)OCO3)C1 (stereo unspecified) | inactive: 253%
CN1CCN(C(=O)c2ccc(CSc3ccc(Cl)cc3)cc2)CC1 | inconclusive: -61.6%
CC(C)(C)c1[nH]nc2c1C(Cc1ccccc1)C(C#N)=C(N)O2 (stereo unspecified) | inconclusive: -35.3%
CCOC(=O)CSc1nc(N)c2c3c(sc2n1)CCCC3 | inactive: -2.46%
O=C(CCN1C(=O)/C(=C/c2ccc(F)cc2)SC1=S)NNC(=O)c1cccnc1 | inconclusive: -34.4%
CCOC(=O)c1c(C)c(C(=O)Nc2cc(OC)ccc2OC)c(C)n1CC | inconclusive: -30.7%
Cc1oc2c(c1C(=O)Nc1cccc(C(=O)O)c1)CCCC2 | active: -108%
O=[N+]([O-])c1ccc(/C=N/Nc2ccc3ccccc3c2)o1 | inconclusive: -32.1%
O=C(CN(Cc1ccccc1)S(=O)(=O)c1ccccc1)N/N=C/c1ccccc1[N+](=O)[O-] | inactive: 7%
